In article PMC11127954:
Results are given in words; binding and its absence hold for the method and conditions named. Binding seen in cells or lysates may run through a third protein. Some entries that bind do so weakly or less than the wild type.

Assays:
[1] = target: Na+/K+-ATPase alpha 3 subunit (ATP1a3), human (human (endogenous in newborn brain tissue)) (UniProt P13637); test: proximity ligation; Duolink PLA of BECN1 and ATP1a3 on deparaffinized autoptic brain sections (CA3 hippocampus) of human newborns, control and HIE cases
[2] = target: Na+/K+-ATPase alpha 3 subunit (ATP1a3), rat (rat (endogenous in primary cortical neurons and pup hippocampus)) (UniProt P06687); test: co-IP; lysates of rat primary cortical neurons (500 ug protein), IP with anti-ATP1a3 overnight at 4 °C, Protein G Dynabeads, immunoblot of BECN1; cells treated with Tat-BECN1 or Tat-sc for 3 h, or KaHx or CTw for 3 h; digoxin treatment also tested
[3] = target: Na+/K+-ATPase alpha 3 subunit (ATP1a3), rat (rat (endogenous in primary cortical neurons and pup hippocampus)) (UniProt P06687); test: proximity ligation; Duolink PLA of BECN1 and ATP1a3 on brain sections (CA3 hippocampus) of rat pups, sham and 6 h and 24 h after hypoxia-ischemia; neriifolin injection also tested
[4] = target: Na+/K+-ATPase alpha 3 subunit (ATP1a3), rat (rat (endogenous in primary cortical neurons and pup hippocampus)) (UniProt P06687); test: co-IP; hippocampal extracts of P7 rat pups (sham, 6 h and 24 h after hypoxia-ischemia), IP with anti-ATP1a3, immunoblot of BECN1; neriifolin injection also tested
[5] = target: Na+/K+-ATPase alpha 3 subunit (ATP1a3), rat (rat (endogenous in primary cortical neurons and pup hippocampus)) (UniProt P06687); test: proximity ligation; Duolink PLA of BECN1 and ATP1a3 on fixed rat primary cortical neurons; Tat-BECN1 or Tat-sc for 3 h, KaHx or CTw for 3 h

Substance | binding [1] | binding [2] | binding [3] | binding [4] | binding [5]
BECLIN1 (BECN1), human (from UniProt Q14457 1-450) | binds |  |  |  | 
BECLIN1 (BECN1), rat (from UniProt Q91XJ1 1-448) |  | binds | binds | binds | binds
